Results are given in words; binding and its absence hold for the method and conditions named. Some results given as binding are weak or reduced against the parent protein; the word gives no strength.
Legend:
Assay in all cases: SEC; analytical gel filtration of purified proteins and their mixtures; Superose 200 increase 10/300 GL; 20 mM Tris-HCl pH 7.9, 100 mM NaCl, 1 mM DTT; both purified
[1] = target: nano-FIP200(1450–1594) (human) (UniProt Q8TDY2)
LC3C = LC3C (UniProt Q9BXW4)
GABARAP = GABARAP (UniProt O95166)
GABARAPL2 = GABARAPL2 (UniProt P60520)
LC3A = LC3A (UniProt Q9H492)

The chains behind the UniProt entries cited, without tags or fusion partners. Where a name states a change or a piece, a line headed by the entry shows the natural chain unless it says otherwise. Residues count along the entry.
UniProt Q8TDY2, residues 1450-1594: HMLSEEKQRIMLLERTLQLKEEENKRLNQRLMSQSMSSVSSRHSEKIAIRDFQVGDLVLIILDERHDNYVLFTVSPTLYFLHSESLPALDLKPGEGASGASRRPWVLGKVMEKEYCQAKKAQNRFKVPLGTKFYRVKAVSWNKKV
UniProt Q9BXW4, residues 1-126: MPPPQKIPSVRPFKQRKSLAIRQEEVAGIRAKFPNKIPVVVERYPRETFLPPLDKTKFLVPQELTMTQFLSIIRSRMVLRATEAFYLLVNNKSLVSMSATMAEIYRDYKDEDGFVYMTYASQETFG
UniProt O95166: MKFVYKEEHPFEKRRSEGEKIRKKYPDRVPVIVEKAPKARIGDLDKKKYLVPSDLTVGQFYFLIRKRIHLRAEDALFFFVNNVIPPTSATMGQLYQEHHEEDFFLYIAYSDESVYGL
UniProt P60520: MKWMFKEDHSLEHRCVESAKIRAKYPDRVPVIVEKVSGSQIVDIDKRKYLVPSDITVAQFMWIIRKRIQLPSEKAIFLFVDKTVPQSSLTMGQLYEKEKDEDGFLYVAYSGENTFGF
Optineurin(33–168) (Q96CV9, residues 33-168): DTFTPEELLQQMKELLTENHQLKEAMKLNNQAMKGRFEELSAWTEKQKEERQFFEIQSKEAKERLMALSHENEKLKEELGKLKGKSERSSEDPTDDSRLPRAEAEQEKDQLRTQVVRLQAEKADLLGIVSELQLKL
Optineurin(186–209) (Q96CV9, residues 186-209): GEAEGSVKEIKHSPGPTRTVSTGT
UniProt Q9ULG6: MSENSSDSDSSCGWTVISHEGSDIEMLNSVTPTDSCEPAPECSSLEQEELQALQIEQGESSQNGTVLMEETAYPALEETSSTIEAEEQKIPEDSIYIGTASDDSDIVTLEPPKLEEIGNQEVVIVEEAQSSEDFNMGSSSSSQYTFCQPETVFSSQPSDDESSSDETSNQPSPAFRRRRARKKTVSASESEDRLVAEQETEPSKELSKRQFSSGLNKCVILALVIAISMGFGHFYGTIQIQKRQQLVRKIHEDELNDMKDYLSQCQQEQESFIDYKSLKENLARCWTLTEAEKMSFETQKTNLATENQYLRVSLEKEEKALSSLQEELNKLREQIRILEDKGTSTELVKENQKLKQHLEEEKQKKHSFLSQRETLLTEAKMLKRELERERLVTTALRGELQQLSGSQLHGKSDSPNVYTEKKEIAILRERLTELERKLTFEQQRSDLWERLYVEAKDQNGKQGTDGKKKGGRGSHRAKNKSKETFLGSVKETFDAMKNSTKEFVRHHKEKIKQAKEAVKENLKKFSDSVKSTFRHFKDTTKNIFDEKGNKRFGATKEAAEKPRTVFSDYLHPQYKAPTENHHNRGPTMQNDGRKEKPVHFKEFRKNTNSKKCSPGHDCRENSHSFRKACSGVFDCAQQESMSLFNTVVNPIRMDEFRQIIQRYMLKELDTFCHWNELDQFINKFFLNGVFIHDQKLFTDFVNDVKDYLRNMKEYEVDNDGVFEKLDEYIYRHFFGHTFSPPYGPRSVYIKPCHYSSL

| binding [1] | binding (LC3C) | binding (GABARAP) | binding (GABARAPL2) | binding (LC3A) | Substance |
| --- | --- | --- | --- | --- | --- |
| no binding | – | – | – | – | Optineurin(186–209) (from UniProt Q96CV9 186-209) (domain or fragment) |
| no binding | – | – | – | – | Optineurin(33–168) (from UniProt Q96CV9 33-168) (domain or fragment) |
| – | binds | binds | binds | binds | CCPG1 FIR2 (residues 99–113), recombinant (from UniProt Q9ULG6 99-113) (domain or fragment) |

— paper PMC7946963, “Phosphorylation regulates the binding of autophagy receptors to FIP200 Claw domain for selective autophagy initiation” (Nature Communications, 2021)
